Library screen at single concentrations

The filed quantity is “Percent Effect” (%). The record does not define 0% and 100%; most values in the screen are far below 50% and negative numbers occur (in some assays of this library far below -100). This is an unselected part of the compounds tested.

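Assay of Toxoplasma gondii numbers, read through their beta-galactosidase reporter with a colour substrate. Concentration: 10 µM. The record gives no direction; the compounds picked for IC50 retests had high values, so higher reads as fewer parasites. Size under these conditions: about 67,000 compounds, about 260 of them at 50% or above in at least one test.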

| SMILES | Percent Effect |
|---|---|
| `c1ccn2cc(CN3CCCC(c4ccn[nH]4)C3)nc2c1` (stereo unspecified) | -0.3371% |
| `OCCN1CCN(CC(O)c2cc(Cl)ccc2Cl)CC1` (stereo unspecified) | 19.58% |
| `CC(=O)N1CCN(C(=O)c2csc(-c3ccc(C)cc3C)n2)CC1` | -6.902% |
| `COCCN1CCOCC2(CCCN(Cc3cccc(F)c3)C2)C1.O=C(O)C(F)(F)F.O=C(O)C(F)(F)F` (stereo unspecified) | -9.561% |
| `O=c1n(CC2CC2)nc(C2CCNCC2)n1Cc1ccccc1` | 2.774% |
| `O=C(CN1CCCC1CCCO)NCc1ccccn1` (stereo unspecified) | 14.1% |
| `Cc1nc2c(c(=O)n1C)CCN(Cc1cc3ccccc3[nH]1)CC2` | 1.351% |
| `O=C(CCNC(=O)c1ccoc1)Nc1cc(F)ccc1F` | 6.601% |
| `CN(CCn1cccn1)C1CCCN(Cc2noc(C3CC3)n2)C1` (stereo unspecified) | 8.782% |
| `[H][C@]12CCC[C@@]1(COCC1CCOCC1)CN(C(=O)c1cccs1)C2` | -12.53% |
| `CCc1nc(C(=O)N2CCOCC2CC(=O)c2ccccc2)c[nH]1` (stereo unspecified) | 0.2818% |
| `CC(=O)c1c(C)cc(C)c(Cn2ccnc2S(C)(=O)=O)c1C` | 3.308% |
| `[H][C@]12CNC[C@@]1(C(=O)NCc1c(C)noc1C)CN(C(=O)COC)C2` | -14.23% |
| `COc1ccc(C(=O)N2CCC(Nc3cccnn3)CC2)c(F)c1` | -39.31% |
| `Cl.Cn1nc(C2CCN(C(=O)CN3CCCCC3)CC2)c2cccnc21` | 0.3648% |
| `Cn1c(C(F)(F)F)nn(CCNC(=O)NCc2ccccc2)c1=O` | 1.314% |
| `O=C(c1ncoc1C1CCCO1)N1CCC2(CCCCC2)CC1` (stereo unspecified) | -3.553% |
| `CC(=O)N(Cc1noc(C2CC2)n1)C1CCN(Cc2cccnc2)C1` (stereo unspecified) | 9.585% |
| `CC(C)NC(=O)CC1COC2(CCN(Cc3ccccc3)CC2)C1.O=C(O)C(F)(F)F` (stereo unspecified) | 5.28% |
| `O=C(CCS(=O)(=O)c1ccccc1)NC1CCOC2(CCOCC2)C1` (stereo unspecified) | -1.658% |
| `O=C(Cc1cccc(F)c1)N1CCc2ncnc(NC3CC3)c2CC1.O=C(O)C(F)(F)F` | -40.77% |
| `Cc1cnc(C)c(-c2cc(O)c3c(c2)CN(Cc2nccs2)CCO3)n1` | -5.633% |
| `N#CCC(=O)NCc1nnc2n1CCN(Cc1cccs1)C2` | -5.053% |
| `NC(=O)CN1CCOCC(Cc2ccccc2)C1` (stereo unspecified) | 14.25% |
| `O=C(O)C(F)(F)F.O=C(O)C(F)(F)F.[H][C@@]12COC[C@]1([H])[C@H](OCc1csc(C)n1)CN2Cc1cccnc1` | -8.654% |
| `CN(C)C(=O)N1CCN(Cc2cnc(-c3ccsc3)s2)CC1` | -6.901% |
| `O=C(c1cnc(-c2ccccc2)s1)N1CCC2(CC1)OCCO2` | 5.056% |
| `CC(C)c1nnc2n1CC(CNCc1ccsc1)CC2` (stereo unspecified) | 13.75% |
| `COCCc1noc(-c2ccc(=O)[nH]c2)n1` | 6.276% |
| `CC(C)n1cc(C(=O)NCCCn2ccnc2)c2n[nH]c(=O)c-2c1` | -20.81% |
| `CC1CCCN(c2ccc(C(N)=O)cc2NC(=O)CC2=CCNCC2)C1` (stereo unspecified) | -14.4% |
| `Cc1noc(CNC(=O)CN(C)c2nc3c(C)ccc(C)c3s2)n1` | 2.879% |
| `CN(C)C(=O)CC1CC2(CCN(Cc3ccsc3)CC2)c2ccccc21.O=C(O)C(F)(F)F` (stereo unspecified) | 0.8629% |
| `[H][C@@]12CCN(Cc3cccc(C)n3)[C@@]1([H])CCN2C(=O)c1cnoc1C` | 11.11% |
| `CC1(C)CN(CC(O)C(C)(C)C)C(=O)CN(C(=O)c2ccccc2)C1` (stereo unspecified) | -2.15% |
| `CC(C)N1Cc2c(C(=O)N3CCN(C)CC3)nn(C)c2C1` | -77.51% |
| `COC(=O)N1CCCC(C(=O)N(C)C)C1` (stereo unspecified) | -3.702% |
| `CN1CCN(c2cc(Sc3cccs3)nc(N)n2)CC1CCO` (stereo unspecified) | 8.443% |
| `COc1cccc(CN2CCOC(c3cnccn3)C2)c1F` (stereo unspecified) | 10.92% |
| `O=C(NCCC(=O)N1CCCC1)c1nn(-c2ccccc2F)cc1O` | 9.047% |
| `O=C(O)C(F)(F)F.[H][C@]12CCCC(N(C)Cc3cccs3)[C@@]1([H])CN(C(N)=O)C2` (stereo partly specified) | 0.7012% |
| `Cc1cccc(C)c1NC(=O)c1cc(S(N)(=O)=O)c(C)o1` | -13.52% |
| `CC1CCN(c2ccc3c(-c4ncc(C(=O)O)s4)noc3c2)CC1` | -2.287% |
| `CC(C(=O)NC1CCN(C)CC1)n1nc(C(F)(F)F)c(Cl)c1C1CC1` (stereo unspecified) | 3.704% |
| `O=C(Nc1cccc(CNCc2cccs2)c1)C1CCCC1` | -5.964% |
| `CCOC(=O)Cc1csc(NC(=O)c2ccc(=O)[nH]n2)n1` | -1.055% |
| `O=S1(=O)CCC(N(CCc2ccc3c(c2)CCO3)C2CC2)C1` (stereo unspecified) | -13.36% |
| `OCc1n[nH]c(-c2ccc(F)cc2)n1` | 3.153% |
| `CN1CCCC(CCC(=O)N2CCc3sc(C(=O)N(C)C)cc3C2)C1` (stereo unspecified) | -8.505% |
| `CCOC[C@@H]1CCC[C@]12CN(S(=O)(=O)c1cn(C)cn1)CCO2` | -12.22% |
| `Cc1ccc(CN2CC[C@@H](N3CCOCC3)[C@@H]2Cc2cccnc2)o1.O=C(O)C(F)(F)F.O=C(O)C(F)(F)F.O=C(O)C(F)(F)F` | 6.404% |
| `CC[C@H](C)[C@H](NC(=O)c1ccc(-n2cnnn2)cc1)C(=O)OC` | -37.33% |
| `Cc1ccnn1CCCNC(=O)C1CCN(S(C)(=O)=O)CC1` | 0.2436% |
| `CC(C)(C)OC(=O)N1CCC(C(=O)NC2CCS(=O)(=O)C2)CC1` (stereo unspecified) | -0.8269% |
| `NC(=O)C(NC(=O)Cc1cnn(-c2ccccc2)n1)c1ccccc1` (stereo unspecified) | 2.456% |
| `CC1(c2ncc(CN3CCSCC3)cn2)CCCCO1` (stereo unspecified) | 14.3% |
| `c1cc(C2CCCN2Cc2nnnn2C2CC2)cs1` (stereo unspecified) | -6.862% |
| `CN(C)c1cccc(C2CCCN2S(=O)(=O)c2cn(C)cn2)n1` (stereo unspecified) | 19.93% |
| `O=C(O)C(F)(F)F.[H][C@@]12CCN(C(=O)c3ccc[nH]3)C[C@]1([H])[C@@H](CN(C)C)OC2` | 2.156% |
| `c1csc(-c2nc(CN3CCN(c4cnccn4)CC3)co2)c1` | 1.131% |
| `CCO[C@@H]1CO[C@@]2(CCCN(C(=O)c3ccc(OC)c(F)c3)C2)C1` | 1.552% |
| `C[C@@H]1CN(CC(C)(C)N2CCCCC2)CC[C@@]1(O)C1CC1` | -1.955% |
| `N#CC1(C(=O)N2CCCN(c3nccs3)CC2)CCCCC1` | 1.996% |
| `O=C(O)C(F)(F)F.[H][C@@]12OCCC[C@]1([H])N(Cc1ccc(OC)cc1)C[C@@H]2N1CCCC1=O` | -0.6299% |
| `CCCc1nc(NCc2c(C)nn(CCC)c2C)c2cnn(C)c2n1` | -9.118% |
| `Cn1ccc(C(=O)N2CCC(Cc3ccc4ncccc4c3)CC2)n1` | 19.24% |
| `COC(=O)c1ccc(CN(C(C)C)C(C)C)o1.Cl` | -3.528% |
| `Cc1ccc2c(c1)C1(CCN(C(N)=O)CC1)CN2CC1CC1` | 17.59% |
| `Cc1ccc(CNc2ccn(CCc3ccncc3)n2)s1` | -3.657% |
| `CSCC(CCO)NC(=O)c1cccc(Cl)c1F` (stereo unspecified) | -4.915% |
| `Cc1c(C(=O)N2CCC(N3CCCCC3)CC2)n(C)c2ccc(Cl)cc12` | -1.335% |
| `Cc1nc(C(C)Nc2nc3c(s2)c(C)nn3C)n[nH]1` (stereo unspecified) | -15.03% |
| `CCCc1cc(=O)n(CC(=O)NCCOC)c(-n2nc(C)cc2C)n1` | 7.053% |
| `CC(=O)c1ccc(CN2C[C@@H](CN3CCC(O)CC3)[C@@H](CO)C2)cc1` | -2.169% |
| `O=C(Nc1ccnc(OC2CCOC2)c1)c1ccccc1Cl` (stereo unspecified) | -4.425% |
| `CCCc1noc(CS(=O)(=O)c2cccc(OC)c2)n1` | -4.532% |
| `CCOc1cccc(CNC(C)c2ccc(-n3ccnc3)cc2)c1O` (stereo unspecified) | -1.068% |
| `[H][C@@]12CCN(S(=O)(=O)C3CC3)[C@]1([H])CC[C@@H](c1nnc(C)o1)O2` | 29% |
| `Cc1cnn(CC2CCCCN2C(=O)c2nccnc2N)c1` (stereo unspecified) | -7.433% |
| `COc1ccccc1CNC(=O)N1CCN(Cc2cc(C)on2)CC1` | -12.29% |
| `O=C(CCn1c(=O)oc2ccccc21)NCC(O)c1ccc(Cl)cc1` (stereo unspecified) | -11.29% |
| `O=C(NC1CCCC1)N1CCCC(c2nccn2Cc2ccncc2)C1` (stereo unspecified) | -1.57% |
| `O=C1NCCCCC1SCc1coc(-c2cccc(F)c2)n1` (stereo unspecified) | 5.609% |
| `COCCNC(=O)Cn1nc(C(C)C)c2cnn(C(C)(C)C)c2c1=O` | 5.692% |
| `Cc1nc(CN(C)C2CCN(Cc3cccc4c3OCCO4)C2)no1` (stereo unspecified) | 4.856% |
| `CCOCC1CC2(CCN(C(=O)CC3=CCCCC3)CC2)CO1` (stereo unspecified) | 0.5933% |
| `Cn1cc(CN2CCC3(CC2)CC(c2ccncc2)C(=O)N3)cn1.O=C(O)C(F)(F)F.O=C(O)C(F)(F)F` (stereo unspecified) | -11.45% |
| `CC(C)C1CN(C(=O)Nc2cnn(CC(F)F)c2)CCS1` (stereo unspecified) | 3.462% |
| `Cc1cnn(CCNCC(O)COc2c(Cl)cccc2Cl)c1` (stereo unspecified) | 14.27% |
| `O=C(Cc1ccc(O)c(F)c1)N1CCC2(CCNCC2)CC1` | -1.328% |
| `Cc1c[nH]c(CN2CCC3(CCCN(Cc4ccc(F)c(F)c4)C3)C2)n1` (stereo unspecified) | -0.8661% |
| `COCC(=O)N1CCc2[nH]c(=O)ccc2C1` | -11.97% |
| `O=C(c1ccc(-c2ccccc2)[nH]c1=O)N1CCN(C2CC2)CC1` | 8.88% |
| `CC(=O)N1CCN(C(=O)NC(C)Cn2ccnc2)CC1` (stereo unspecified) | 6.311% |

The last 10 entries again:

* Cc1nc(CN(C)C2CCN(Cc3cccc4c3OCCO4)C2)no1 (stereo unspecified) : 4.856%
* CCOCC1CC2(CCN(C(=O)CC3=CCCCC3)CC2)CO1 (stereo unspecified) : 0.5933%
* Cn1cc(CN2CCC3(CC2)CC(c2ccncc2)C(=O)N3)cn1.O=C(O)C(F)(F)F.O=C(O)C(F)(F)F (stereo unspecified) : -11.45%
* CC(C)C1CN(C(=O)Nc2cnn(CC(F)F)c2)CCS1 (stereo unspecified) : 3.462%
* Cc1cnn(CCNCC(O)COc2c(Cl)cccc2Cl)c1 (stereo unspecified) : 14.27%
* O=C(Cc1ccc(O)c(F)c1)N1CCC2(CCNCC2)CC1 : -1.328%
* Cc1c[nH]c(CN2CCC3(CCCN(Cc4ccc(F)c(F)c4)C3)C2)n1 (stereo unspecified) : -0.8661%
* COCC(=O)N1CCc2[nH]c(=O)ccc2C1 : -11.97%
* O=C(c1ccc(-c2ccccc2)[nH]c1=O)N1CCN(C2CC2)CC1 : 8.88%
* CC(=O)N1CCN(C(=O)NC(C)Cn2ccnc2)CC1 (stereo unspecified) : 6.311%

Data taken from ChEMBL document CHEMBL3988442, “University of Dundee, Small-Polar-MMV Screening Library” (2021).